Results are given in words; binding and its absence hold for the method and conditions named. Binding seen in cells or lysates may run through a third protein.
Target: Annexin A2 (human (endogenous in serum extracellular vesicles)) (UniProt P07355)
Test: co-IP; anti-ANXA2 antibody (ab235939) on protein A magnetic Dynabeads; RIPA lysates of SEVs, SEV + cel-miR-39 and mimic alone; 1 h at room temperature; washed 3 times with PBS-0.1% Tween; western blot for ANXA2 and Alix

Sequences of proteins named here, by UniProt entry; tags and fusion partners are left off.
UniProt P07355: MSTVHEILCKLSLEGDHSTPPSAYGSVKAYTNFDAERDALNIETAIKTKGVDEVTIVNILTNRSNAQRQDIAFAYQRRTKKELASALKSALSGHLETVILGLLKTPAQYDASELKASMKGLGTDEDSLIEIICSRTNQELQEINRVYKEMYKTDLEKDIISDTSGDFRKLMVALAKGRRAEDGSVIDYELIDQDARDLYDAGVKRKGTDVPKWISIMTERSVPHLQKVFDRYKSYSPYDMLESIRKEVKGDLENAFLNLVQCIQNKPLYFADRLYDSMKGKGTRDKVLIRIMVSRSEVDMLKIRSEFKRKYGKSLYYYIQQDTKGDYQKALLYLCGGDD
UniProt Q8WUM4: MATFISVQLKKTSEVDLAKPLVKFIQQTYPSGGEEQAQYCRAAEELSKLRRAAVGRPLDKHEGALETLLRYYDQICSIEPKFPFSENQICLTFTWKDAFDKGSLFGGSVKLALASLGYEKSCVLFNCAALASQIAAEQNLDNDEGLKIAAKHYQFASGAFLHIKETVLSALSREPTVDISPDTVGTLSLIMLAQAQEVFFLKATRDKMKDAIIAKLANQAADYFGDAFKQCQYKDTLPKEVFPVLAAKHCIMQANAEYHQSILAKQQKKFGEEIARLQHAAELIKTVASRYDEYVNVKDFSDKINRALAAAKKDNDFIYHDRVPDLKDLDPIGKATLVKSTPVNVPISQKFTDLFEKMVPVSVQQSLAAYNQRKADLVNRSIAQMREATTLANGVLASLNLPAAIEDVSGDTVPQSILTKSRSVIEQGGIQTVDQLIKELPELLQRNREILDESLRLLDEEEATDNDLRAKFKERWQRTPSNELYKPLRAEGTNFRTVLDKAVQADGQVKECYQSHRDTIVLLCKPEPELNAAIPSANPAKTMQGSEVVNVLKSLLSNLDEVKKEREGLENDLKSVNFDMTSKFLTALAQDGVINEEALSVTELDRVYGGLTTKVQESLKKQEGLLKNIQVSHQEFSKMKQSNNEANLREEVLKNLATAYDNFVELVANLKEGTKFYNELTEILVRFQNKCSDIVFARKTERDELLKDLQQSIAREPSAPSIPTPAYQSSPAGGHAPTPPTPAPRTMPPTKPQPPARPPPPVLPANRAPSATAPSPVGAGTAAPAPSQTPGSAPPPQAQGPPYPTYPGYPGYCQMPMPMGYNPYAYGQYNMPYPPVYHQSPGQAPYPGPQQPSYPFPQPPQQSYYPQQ

Substance: Alix (from UniProt Q8WUM4 1-868)
- binding: no binding

Reference: PMC8032863
